Measurements reported in US8486950B2, “Janus kinase inhibitor compounds and methods” (F. Hoffmann-La Roche AG, priority 2009, dated 2013).
Some of these results come from one statement about several compounds together.

Molecular target: T1, TYK2 kinase domain (Homo sapiens, UniProt P29597)
T1 construct: made in house; host or cells: SF9 insect cells (recombinant baculovirus)
T1 sequence (P29597 873-1187): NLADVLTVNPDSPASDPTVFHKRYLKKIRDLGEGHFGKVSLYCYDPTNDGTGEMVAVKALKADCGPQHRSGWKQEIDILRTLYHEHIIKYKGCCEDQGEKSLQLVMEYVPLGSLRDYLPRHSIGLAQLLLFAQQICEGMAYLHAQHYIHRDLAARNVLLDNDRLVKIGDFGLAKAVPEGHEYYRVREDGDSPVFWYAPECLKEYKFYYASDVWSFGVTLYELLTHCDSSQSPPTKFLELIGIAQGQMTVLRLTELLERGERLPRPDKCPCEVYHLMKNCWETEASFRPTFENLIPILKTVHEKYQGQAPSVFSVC
Experiment: TYK2 inhibition assay (Caliper LabChip, isolated kinase domain)
Type: biochemical
Details: 25 uM ATP, values given as 'about'

| SMILES | Ki |
| --- | --- |
| CN(C)C(=O)c1ccc(Nc2cc(NC(=O)c3c(Cl)cccc3Cl)ncn2)nc1 [Example 148, 6-(6-(2,6-dichlorobenzamido)-pyrimidin-4-ylamino)-N,N-dimethylnicotinamide] | < 3.5 µM |
| O=C(Nc1cc(Nc2ccc(C(=O)N3CCOCC3)cn2)ncn1)c1c(Cl)cccc1Cl [Example 149, 2,6-dichloro-N-(6-(5-(morpholine-4-carbonyl)-pyridin-2-ylamino)-pyrimidin-4-yl)benzamide] | < 3.5 µM |
| CN1CCN(C(=O)c2ccc(Nc3cc(NC(=O)c4c(Cl)cccc4Cl)ncn3)nc2)CC1 [Example 150, 2,6-dichloro-N-(6-(5-(4-methylpiperazine-1-carbonyl)-pyridin-2-ylamino)-pyrimidin-4-yl)benzamide] | < 3.5 µM |
| O=C(O)c1ccc(Nc2cc(NC(=O)c3c(Cl)cccc3Cl)ncn2)cc1 [Example 151, 4-(6-(2,6-dichlorobenzamido)-pyrimidin-4-ylamino)benzoic acid] | < 3.5 µM |
| O=C(O)c1ccc(Nc2cc(NC(=O)c3c(Cl)cccc3Cl)ncn2)nc1 [Example 152, 6-(6-(2,6-dichlorobenzamido)-pyrimidin-4-ylamino)nicotinic acid] | < 3.5 µM |
| CCOC(=O)c1ccc(Nc2cc(NC(=O)c3c(Cl)cccc3Cl)ncn2)cc1 [Example 153, ethyl 4-(6-(2,6-dichlorobenzamido)-pyrimidin-4-ylamino)benzoate] | < 3.5 µM |
| COC(=O)c1ccc(Nc2cc(NC(=O)c3c(Cl)cccc3Cl)ncn2)nc1 [Example 154, methyl 6-(6-(2,6-dichlorobenzamido)-pyrimidin-4-ylamino)nicotinate] | < 3.5 µM |
| O=C(Nc1cc(NC(=O)C2CC2)ncn1)c1c(Cl)cccc1Cl [Example 155, 2,6-dichloro-N-(6-(cyclopropanecarboxamido)-pyrimidin-4-yl)benzamide] | < 3.5 µM |
| O=C(Nc1ccnc(NC2CC2)n1)c1c(Cl)cccc1Cl [Example 156, 2,6-dichloro-N-(2-(cyclopropylamino)-pyrimidin-4-yl)benzamide] | < 3.5 µM |
| CN1CCN(C(=O)c2ccc(Nc3nccc(NC(=O)c4c(Cl)cccc4Cl)n3)cc2)CC1 [Example 157, 2,6-dichloro-N-(2-(4-(4-methylpiperazine-1-carbonyl)phenylamino)-pyrimidin-4-yl)benzamide] | < 3.5 µM |
| O=C(Nc1ccnc(Nc2ccc(C(=O)N3CCOCC3)cc2)n1)c1c(Cl)cccc1Cl [Example 158, 2,6-dichloro-N-(2-(4-(morpholine-4-carbonyl)-phenylamino)pyrimidin-4-yl)benzamide] | < 3.5 µM |
| CN(C)C(=O)c1ccc(Nc2nccc(NC(=O)c3c(Cl)cccc3Cl)n2)cc1 [Example 159, 2,6-dichloro-N-(2-(4-(dimethylcarbamoyl)-phenylamino)pyrimidin-4-yl)benzamide] | < 3.5 µM |
| O=C(Nc1ccnc(NC(=O)C2CC2)n1)c1c(Cl)cccc1Cl [Example 160, 2,6-dichloro-N-(2-(cyclopropanecarboxamido)-pyrimidin-4-yl)benzamide] | < 3.5 µM |
| O=C(O)c1ccc(Nc2nccc(NC(=O)c3c(Cl)cccc3Cl)n2)cc1 [Example 161, 4-(4-(2,6-dichlorobenzamido)-pyrimidin-2-ylamino)benzoic acid] | < 3.5 µM |
| O=C(O)c1ccc(Nc2nccc(NC(=O)c3c(Cl)cccc3Cl)n2)nc1 [Example 162, 6-(4-(2,6-dichlorobenzamido)-pyrimidin-2-ylamino)nicotinic acid] | < 3.5 µM |
| CCOC(=O)c1ccc(Nc2nccc(NC(=O)c3c(Cl)cccc3Cl)n2)nc1 [Example 163, ethyl 6-(4-(2,6-dichlorobenzamido)-pyrimidin-2-ylamino)-nicotinate] | < 3.5 µM |
| CCOC(=O)c1ccc(Nc2nccc(NC(=O)c3c(Cl)cccc3Cl)n2)cc1 [Example 164, ethyl 4-(4-(2,6-dichlorobenzamido)-pyrimidin-2-ylamino)-benzoate] | < 3.5 µM |
| Nc1nccc(NC(=O)c2c(Cl)cccc2Cl)n1 [Example 165, N-(2-aminopyrimidin-4-yl)-2,6-dichlorobenzamide] | < 3.5 µM |
| NCCC(=O)Nc1cc(NC(=O)c2c(Cl)cccc2Cl)ccn1 [Example 168, N-(2-(3-aminopropanamido)-pyridin-4-yl)-2,6-dichlorobenzamide] | < 3.5 µM |
| CN(C)CCNc1nccc(Nc2cc(NC(=O)c3c(Cl)cccc3Cl)ccn2)n1 [Example 173, 2,6-dichloro-N-(2-(2-(2-(dimethylamino)-ethylamino)pyrimidin-4-ylamino)pyridin-4-yl)benzamide] | < 3.5 µM |
| CN(C)C(=O)c1cccc(Nc2cc(NC(=O)c3c(Cl)cccc3Cl)ccn2)n1 [Example 174, 6-(4-(2,6-dichlorobenzamido)-pyridin-2-ylamino)-N,N-dimethylpicolinamide] | < 3.5 µM |
| Cc1nccc(Nc2cc(NC(=O)c3c(Cl)cccc3Cl)ccn2)n1 [Example 175, 2,6-dichloro-N-(2-(2-methylpyrimidin-4-ylamino)pyridin-4-yl)-benzamide] | < 3.5 µM |
| O=C(Nc1ccnc(Nc2ccnc(CO)n2)c1)c1c(Cl)cccc1Cl [Example 176, 2,6-dichloro-N-(2-(2-(hydroxymethyl)pyrimidin-4-ylamino)pyridin-4-yl)benzamide] | < 3.5 µM |
| NCCNc1nccc(Nc2cc(NC(=O)c3c(Cl)cccc3Cl)ccn2)n1 [Example 177, N-(2-(2-(2-aminoethylamino)-pyrimidin-4-ylamino)-pyridin-4-yl)-2,6-dichlorobenzamide] | < 3.5 µM |
| O=C(Nc1cc(NC(=O)c2c(Cl)cccc2Cl)ccn1)c1cnco1 [Example 180, N-(4-(2,6-dichloro-benzamido)pyridin-2-yl)-oxazole-5-carboxamide] | < 3.5 µM |
| O=C(Nc1cc(NC(=O)c2c(Cl)cccc2Cl)ccn1)c1ncc[nH]1 [Example 181, N-(4-(2,6-dichloro-benzamido)pyridin-2-yl)-1H-imidazole-2-carboxamide] | < 3.5 µM |
| O=C(Cc1ccccc1)Nc1cc(NC(=O)c2c(Cl)cccc2Cl)ccn1 [Example 182, 2,6-dichloro-N-(2-(2-phenylacetamido)-pyridin-4-yl)benzamide] | < 3.5 µM |
| CN(C)Cc1ccc(Nc2cc(NC(=O)c3c(Cl)cccc3Cl)ccn2)nc1 [Example 183, 2,6-dichloro-N-(2-(5-((dimethylamino)methyl)-pyridin-2-ylamino)-pyridin-4-yl)benzamide] | < 3.5 µM |

Now from value to compound:

| Ki | SMILES |
| --- | --- |
| < 3.5 µM | CN(C)S(=O)(=O)c1ccc(Nc2cc(NC(=O)c3c(Cl)cccc3Cl)ccn2)nc1 [Example 132, 2,6-dichloro-N-(2-(5-(N,N-dimethylsulfamoyl)-pyridin-2-ylamino)-pyridin-4-yl)benzamide] |
| < 3.5 µM | Cc1cc(Nc2cc(NC(=O)c3c(Cl)cccc3Cl)ccn2)nc(C)n1 [Example 133, 2,6-dichloro-N-(2-(2,6-dimethylpyrimidin-4-ylamino)pyridin-4-yl)-benzamide] |
| < 3.5 µM | COc1nccc(Nc2cc(NC(=O)c3c(Cl)cccc3Cl)ccn2)n1 [Example 134, 2,6-dichloro-N-(2-(2-methoxypyrimidin-4-ylamino)pyridin-4-yl)benzamide] |
| < 3.5 µM | O=C(Nc1ccnc(Nc2cccc(O)n2)c1)c1c(Cl)cccc1Cl [Example 135, 2,6-dichloro-N-(2-(6-hydroxypyridin-2-ylamino)pyridin-4-yl)benzamide] |
| < 3.5 µM | O=C(Nc1ccnc(Nc2nc(N3CCOCC3)ncc2F)c1)c1c(Cl)cccc1Cl [Example 136, 2,6-dichloro-N-(2-(5-fluoro-2-morpholino-pyrimidin-4-ylamino)-pyridin-4-yl)benzamide] |
| < 3.5 µM | COc1ccc(Nc2cc(NC(=O)c3c(Cl)cccc3Cl)ccn2)nc1 [Example 138, 2,6-dichloro-N-(2-(5-methoxypyridin-2-ylamino)-pyridin-4-yl)benzamide] |
| < 3.5 µM | O=C(Nc1ccnc(Nc2ncc(F)cc2F)c1)c1c(Cl)cccc1Cl [Example 139, 2,6-dichloro-N-(2-(3,5-difluoropyridin-2-ylamino)pyridin-4-yl)benzamide] |
| < 3.5 µM | O=C(Nc1ccnc(Nc2cccnc2)n1)c1c(Cl)cccc1Cl [Example 140, 2,6-dichloro-N-(2-(pyridin-3-ylamino)-pyrimidin-4-yl)benzamide] |
| < 3.5 µM | O=C(Nc1ccnc(Nc2ccccn2)n1)c1c(Cl)cccc1Cl [Example 141, 2,6-dichloro-N-(2-(pyridin-2-ylamino)-pyrimidin-4-yl)benzamide] |
| < 3.5 µM | O=C(Nc1ccnc(Nc2ccccc2)n1)c1c(Cl)cccc1Cl [Example 142, 2,6-dichloro-N-(2-(phenylamino)pyrimidin-4-yl)benzamide] |
| < 3.5 µM | CN(C)C(=O)c1ccc(Nc2cc(NC(=O)c3c(Cl)cccc3Cl)ncn2)cc1 [Example 143, 2,6-dichloro-N-(6-(4-(dimethylcarbamoyl)-phenylamino)pyrimidin-4-yl)benzamide] |
| < 3.5 µM | O=C(Nc1cc(Nc2ccc(C(=O)N3CCOCC3)cc2)ncn1)c1c(Cl)cccc1Cl [Example 144, 2,6-dichloro-N-(6-(4-(morpholine-4-carbonyl)-phenylamino)pyrimidin-4-yl)benzamide] |
| < 3.5 µM | CN1CCN(C(=O)c2ccc(Nc3cc(NC(=O)c4c(Cl)cccc4Cl)ncn3)cc2)CC1 [Example 145, 2,6-dichloro-N-(6-(4-(4-methylpiperazine-1-carbonyl)phenylamino)-pyrimidin-4-yl)benzamide] |
| < 3.5 µM | O=C(O)c1cccc(Nc2nccc(NC(=O)c3c(Cl)cccc3Cl)n2)c1 [Example 146, 3-(4-(2,6-dichlorobenzamido)-pyrimidin-2-ylamino)-benzoic acid] |
| < 3.5 µM | O=C(Nc1ccnc(Nc2ccncc2)n1)c1c(Cl)cccc1Cl [Example 147, 2,6-dichloro-N-(2-(pyridin-4-ylamino)-pyrimidin-4-yl)benzamide] |
